Data: patent US8318668B2 (Trustees of Tufts College, priority 2005, dated 2012)
Not every detail of the peptide structures is certain; ends, links or a residue may be inferred. Some results were stated once for a whole list of compounds, not compound by compound.

Key:
db mice [1] = experiment: Dose response of blood glucose lowering in diabetic (db) mice; assay type: in vivo; conditions: blood glucose 60 minutes post injection
From the text: The data were fit to a sigmoidal dose response curve.

db mice [2] = experiment: Time course of blood glucose lowering in db mice; conditions: 8 μg injected

CC[C@H](C)[C@H](NC(=O)[C@H](Cc1ccccc1)NC(=O)[C@H](CCC(=O)O)NC(=O)[C@H](CCCCN)NC(=O)[C@H](C)NC(=O)[C@H](C)NC(=O)[C@H](CCC(N)=O)NC(=O)CNC(=O)[C@H](CCC(=O)O)NC(=O)[C@H](CC(C)C)NC(=O)[C@H](Cc1ccc(O)cc1)NC(=O)[C@H](CO)NC(=O)[C@H](CO)NC(=O)[C@@H](NC(=O)[C@H](CC(=O)O)NC(=O)[C@H](CO)NC(=O)[C@@H](NC(=O)[C@H](Cc1ccccc1)NC(=O)[C@@H](NC(=O)CNC(=O)[C@@H](NC(=O)[C@H](C)NC(=O)[C@@H](N)Cc1c[nH]cn1)C(C)(C)C(=O)O)[C@@H](C)O)[C@@H](C)O)C(C)C)C(=O)N[C@@H](C)C(=O)N[C@@H](Cc1c[nH]c2ccccc12)C(=O)N[C@@H](CC(C)C)C(=O)N[C@H](C(=O)N[C@@H](CCCCN)C(=O)NCC(=O)N[C@@H](CCCNC(=N)N)C(=O)N1CCC[C@H]1C(=O)N[C@@H](CO)C(=O)N[C@@H](CO)C(=O)NCC(=O)N[C@@H](C)C(=O)N1CCC[C@H]1C(=O)N1CCC[C@H]1C(=O)N1CCC[C@H]1C(=O)N[C@@H](CO)C(N)=O)C(C)C [Compound P1732]
95% confidence interval of EC50 of glucose lowering effect (db mice [1]): 0.4 to 3.5 µg
duration of action (in words) (db mice [2]; db / diabetic mice): equivalent to that of exendin-4
duration of blood glucose lowering effect (db mice [2]; db mice): at least 4 hours
